Tested on: proteins from the brush border tissue of the small intestine
Test: Photoaffinity labeling and binding studies with brush border vesicles
Conditions: rabbit brush border membrane vesicles, SDS polyacrylamide gel, FIG. 1

## COc1ccc(C2C(CCC(O)c3ccccc3)C(=O)N2c2ccc(CNC(C)=O)cc2)cc1 (centres unmarked) [formula I, N-{4-[3-(3-hydroxy-3-phenylpropyl)-2-(4-methoxyphenyl)-4-oxoazetidin-1-yl]benzyl}acetamide]
  molecular weight of proteins labeled by the radiolabeled compound: 145 kDa, 97 kDa, 72 kDa, 63 kDa, 58 kDa, 41 kDa 32 kDa and 25 kDa

## COc1ccc(C2C(CCC(O)c3ccccc3)C(=O)N2c2ccc(CNC(=O)c3ccc(N=[N+]=[N-])cc3)cc2)cc1 (centres unmarked) [formula II, 4-azido-N-{4-[3-(3-hydroxy-3-phenyl-propyl)-2-(4-methoxyphenyl)-4-oxoazetidin-1-yl]benzyl}benzamide]
  molecular weight of proteins labeled by the radiolabeled compound: 145 kDa, 97 kDa, 87 kDa and 41 kDa

Source: patent US6794359B2, “Vertebrate intestinal protein which absorbs cholesterol, its inhibitors and mehtod of identifying the same” (Aventis Pharma Deutschland GmbH, priority 2000, dated 2004)
